Over roughly 33,000 sequences, “E-score (-0.5 to 0.5)” has its median near -0.0014; the highest 2% begin near 0.25. The list shows a part of the results.
target: T1, Cad1 (UniProt P24813); assay: PBM E-score (8-mer binding enrichment) (E-score (-0.5 to 0.5)); higher = stronger / more preferred TF binding; details: protein concentration: 100 nM; construct: GST-full length
T1 sequence: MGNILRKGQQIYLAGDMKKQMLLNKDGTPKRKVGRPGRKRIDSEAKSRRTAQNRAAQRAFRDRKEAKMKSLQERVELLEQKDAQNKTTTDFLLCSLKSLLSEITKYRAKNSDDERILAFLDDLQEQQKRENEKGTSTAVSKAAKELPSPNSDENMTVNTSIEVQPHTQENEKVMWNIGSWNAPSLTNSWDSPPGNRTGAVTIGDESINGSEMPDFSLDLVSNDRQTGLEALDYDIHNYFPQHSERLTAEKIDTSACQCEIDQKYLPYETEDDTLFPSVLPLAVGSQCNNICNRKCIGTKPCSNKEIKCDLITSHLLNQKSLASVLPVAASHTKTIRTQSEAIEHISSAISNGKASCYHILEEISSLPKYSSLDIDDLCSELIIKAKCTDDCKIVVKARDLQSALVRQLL
Procedure, shortened: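 Yeast transcription factors carrying a GST tag, as full-length proteins or DNA-binding domains, were produced by PURExpress in vitro transcription/translation. About 100-200 nM protein was applied to universal all-10-mer Agilent arrays, double-stranded by primer extension on fresh or once-stripped slides. Bound protein was detected with fluorescent anti-GST, and scans were normalised with masliner. The Universal PBM Analysis Suite gave each ungapped eight-base word, pooled with its reverse complement, an E-score, a modified Wilcoxon-Mann-Whitney statistic.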

Sequence | PBM E-score
CACTGGAG | -0.168
AGGAGCCT | -0.34
GTGTCAAA | 0.163
AAAGGCCG | -0.0244
ACGAGACA | -0.0322
ATACTTGG | -0.111
GGGGAGTA | -0.24
AATGGGTG | -0.0102
ATCTATGG | -0.242
CATTCCCG | 0.144
ACTGTTCT | 0.145
ATCAGTCG | 0.117
CATTAACC | 0.0603
ATGAATTA | 0.107
CCTACGTC | -0.0661
AAAACCAA | 0.0643
ATTCACTC | -0.0842
GACAAAAA | 0.216
CGTTGCGC | 0.176
GAATACAA | 0.112
AGCGAAAT | -0.184
GCGAAAGA | -0.0989
ACGCCCTC | -0.067
ATTGGCTC | 0.0265
ATCGGGGG | -0.474

Sequence | PBM E-score
CGAAGGTC | -0.15
AATTTAAG | 0.0522
AATTCCAG | 0.257
CATCCTCA | -0.13
CAGTGATA | 0.0715
GTACGGGA | -0.196
AATCTCAC | -0.0928
ACATGTCC | 0.0728
AAAAGCTT | -0.147
CAGTACAA | -0.0292
AAGAGAGA | -0.197
GCCGGTAC | 0.00351
GTATACAA | 0.127
GCGCATCC | -0.0757
CCATTGGG | -0.0892
GGCAGTAC | -0.177
ATTTCAAG | 0.109
AGCGACCA | 0.0127
CTCTGAAA | -0.00019
ATTAAGCC | 0.176
CCGCCGAC | 0.00504
ATCGAATC | 0.122
GCAAATGC | -0.0592
CGGACGTA | -0.12
AATTAGGT | 0.17

Sequence | PBM E-score
CGTTAGTC | 0.042
ATCTCCCG | -0.0893
ACTAGGAA | -0.0774
AAACGCGG | 0.0458
ATGGCTAA | 0.00749
ATAGCTAA | 0.0748
CTCTACAG | -0.115
CAGTTCTA | 0.0289
AAGATTCT | -0.0858
GGATGTAC | -0.0446
GTTCACGA | 0.0636
GCATTCGC | -0.227
AATGATCA | 0.119
AACGGTAC | 0.178
CTACTTTA | -0.0669
CTCGTGTC | -0.0216
AGCCAGCA | -0.312
TGAGTCAA | -0.043
GCCTCAGC | -0.0857
AATTATGC | 0.0336
CATCTATA | -0.0909
GAGCAGTA | 0.11
CCGCCCGG | -0.0789
ATTCCGGC | 0.0166
CAAACACC | 0.042

Sequence | PBM E-score
CAGCGTCC | 0.064
GATGAGTA | 0.0996
CAATCTGC | -0.0882
GACTCAAA | -0.0319
CTCTAAGA | -0.0506
CTATTATC | 0.0972
AACGCTCA | -0.0578
CCACTTAG | 0.021
CCTGCCCC | -0.336
CAAACCTC | -0.126
CGGGATGA | 0.0883
CAGTTTAG | -0.0299
CTCAAAAC | -0.133
CCCTCGTC | -0.23
CGTCCTGA | -0.00878
GATTCACA | -0.08
AAAACCTG | -0.1
GTCTCAAA | -0.0829
CAAAACCA | 0.104
ATAAGTGC | 0.0702
GAATCTTA | 0.0927
GTCTTACA | -0.108
ACAGCTTC | 0.0271
GTGGCTGA | -0.105
GTAGGGAA | 0.0374

Reformatted with tabs: part of the list above.
Sequence	PBM E-score
CGTCCTGA	-0.00878
GATTCACA	-0.08
AAAACCTG	-0.1
GTCTCAAA	-0.0829
CAAAACCA	0.104
ATAAGTGC	0.0702
GAATCTTA	0.0927

(cont.)

Sequence | PBM E-score
ACCTGCGA | -0.203
GCAGAACC | -0.0185
CAAATTCG | 0.118
TCAAAAGA | -0.0817
GCCGGTAA | 0.0907
CATCTCGA | 0.0431
CCGGCCTC | -0.158
ATAGTTCC | 0.00211
AACTAACT | -0.0923
GTAGTGCA | 0.0845
ACACGACC | -0.00841
AGACTTGG | -0.248
CCATCACG | 0.054
GGCATCAA | -0.135
CAAATAGG | 0.0602
CTGCTCAC | -0.0643
GAACTGTA | 0.0769
CTGTCAAC | 0.00496
GACGACCA | -0.0746
ACAACATA | 0.23
AATCAGCA | 0.258
CTGATGGC | -0.0751
GTATTCTA | 0.138
ATTGTTAG | 0.0937
AATTCGCG | 0.192

Sequence | PBM E-score
AGGATAAA | 0.207
ACCAACGC | -0.00258
AGGAAACA | 0.141
CCTTCTGC | -0.16
AATTTGTA | 0.196
TAGCTCGA | 0.0489
GCCGTAGA | 0.19
GGTAAGTA | 0.0365
AAAAGCAA | 0.127
ATCCCGAC | 0.0376
ATTGGTAG | 0.0517
AGGGGCAG | -0.197
ACAAGACA | 0.0654
ACCGATAC | 0.00087
GAATCGCA | -0.0784
CGTAGCGC | -0.0945
GCTTCTTA | 0.043
CGTAGTAG | 0.0011
ATACGGAG | -0.12
ATTTCGAG | 0.181
AATAGCAA | 0.199
ATGCGTTA | 0.125
ATGCGAAC | -0.0513
GGTCTTTA | -0.0378
AACCTGCT | -0.113

Sequence | PBM E-score
CCGCGCTC | 0.097
CATTTACG | -0.141
AATCGAGA | 0.0959
ATCGTTAG | 0.108
ATGCCTAC | -0.0355
GTTTGTCA | 0.317
AGAATTAG | 0.00824
ATAATCTC | 0.0934
TGAAGCAA | 0.0525
CCTGACTA | 0.351
AGAGTTAA | -0.00997
CGGTCGGC | -0.204
AACGAGGA | 0.0212
GAACCCGC | -0.191
GGAATTCC | -0.00382
AATAGTGG | 0.134
TCTAAGCA | 0.127
AAAAATCT | 0.0732
GCAACCGA | 0.175
GGATGTGA | -0.0236
CGAAGTTC | 0.0863
AACCCGTG | -0.317
